Measured values: patent US20250064859A1, “HPSC-DERIVED ARTICULAR CHONDROCYTE COMPOSITIONS, SYSTEMS AND METHODS OF USE THEREOF” (The Children's Medical Center Corporation, priority 2022, published 2025)
For at least one compound, name, drawing or mass did not settle the structure.

How the values were obtained:
paraxial mesoderm cells [1] = experiment: Monolayer culture of paraxial mesoderm with TGFB and FGF, with DMSO or Forskolin; qPCR gene expression; type: cell-based, human; details: in presence of TGFB and FGF
paraxial mesoderm cells [2] = experiment: Monolayer culture of paraxial mesoderm without TGFβ and FGF, with or without FSK; qPCR gene expression; type: cell-based, human
[3] = without TGFβ and FGF, 2, 3, 4 weeks

C=C[C@@]1(C)CC(=O)[C@]2(O)[C@@]3(C)[C@@H](O)CCC(C)(C)[C@@H]3[C@H](O)[C@H](OC(C)=O)[C@@]2(C)O1 [Forskolin]
cartilage output (COL2A1 gene expression) in monolayer (paraxial mesoderm cells [1]; acutely (1 day) and longer term (2 weeks)): improved cartilage output | SCX expression (tendon gene) in monolayer (paraxial mesoderm cells [1]; after 2, 3, 4 days or 2 weeks): reduced | cartilage induction in monolayers (paraxial mesoderm cells [2]; cultured without TGFβ and FGF, FSK alone, DMSO vehicle control): induced cartilage | chondrogenic gene expression (COL2A1) (paraxial mesoderm cells [2]; [3]): Increased | tendon genes (SCX and MKX) expression (paraxial mesoderm cells [2]; [3]): minimal change or decrease
